Laboratory results taken from the supplement of paper PMC10849652.
Some of the results follow.

Chains of the proteins cited; added tags and fusions are not shown. Lines headed by an entry give the natural chain unless they say otherwise; changes in a name come on top.
UniProt Q9H871: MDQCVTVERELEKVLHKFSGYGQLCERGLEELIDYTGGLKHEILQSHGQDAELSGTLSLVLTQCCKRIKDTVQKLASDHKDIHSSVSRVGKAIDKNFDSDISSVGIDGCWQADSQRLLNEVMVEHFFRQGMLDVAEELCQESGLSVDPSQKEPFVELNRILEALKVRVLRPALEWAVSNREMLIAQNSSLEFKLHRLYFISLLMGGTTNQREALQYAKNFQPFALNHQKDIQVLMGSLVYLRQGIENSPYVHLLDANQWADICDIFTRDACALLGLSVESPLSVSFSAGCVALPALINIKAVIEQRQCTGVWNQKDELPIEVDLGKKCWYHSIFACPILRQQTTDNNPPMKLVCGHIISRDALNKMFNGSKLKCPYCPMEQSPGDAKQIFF
UniProt Q9BVS4: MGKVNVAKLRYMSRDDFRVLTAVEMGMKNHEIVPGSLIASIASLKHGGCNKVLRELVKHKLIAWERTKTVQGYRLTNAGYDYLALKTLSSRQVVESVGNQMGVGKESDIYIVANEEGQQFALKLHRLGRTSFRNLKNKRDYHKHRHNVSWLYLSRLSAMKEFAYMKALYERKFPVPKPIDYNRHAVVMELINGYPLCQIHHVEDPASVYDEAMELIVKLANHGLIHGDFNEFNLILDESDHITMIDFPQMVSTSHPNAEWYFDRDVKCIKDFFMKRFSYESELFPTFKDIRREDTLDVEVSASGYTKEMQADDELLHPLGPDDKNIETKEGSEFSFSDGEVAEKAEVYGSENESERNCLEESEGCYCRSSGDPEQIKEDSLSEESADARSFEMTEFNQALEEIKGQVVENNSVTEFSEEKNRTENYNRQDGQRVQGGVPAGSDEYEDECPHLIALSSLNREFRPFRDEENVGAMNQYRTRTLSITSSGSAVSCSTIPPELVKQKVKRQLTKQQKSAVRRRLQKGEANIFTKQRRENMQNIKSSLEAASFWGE
UniProt Q969G6: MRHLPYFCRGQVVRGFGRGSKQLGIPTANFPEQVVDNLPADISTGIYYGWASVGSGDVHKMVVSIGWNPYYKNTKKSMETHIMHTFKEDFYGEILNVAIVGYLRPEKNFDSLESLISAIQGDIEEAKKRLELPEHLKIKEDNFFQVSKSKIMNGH
UniProt O75792: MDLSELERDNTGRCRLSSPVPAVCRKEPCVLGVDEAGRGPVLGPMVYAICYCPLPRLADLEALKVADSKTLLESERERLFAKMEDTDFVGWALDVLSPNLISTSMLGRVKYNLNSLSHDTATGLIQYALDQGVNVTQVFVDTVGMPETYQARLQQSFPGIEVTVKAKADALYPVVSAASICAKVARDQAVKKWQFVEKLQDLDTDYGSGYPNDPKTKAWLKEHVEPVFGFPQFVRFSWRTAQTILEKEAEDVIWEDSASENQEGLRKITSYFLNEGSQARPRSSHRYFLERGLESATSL
UniProt O43665: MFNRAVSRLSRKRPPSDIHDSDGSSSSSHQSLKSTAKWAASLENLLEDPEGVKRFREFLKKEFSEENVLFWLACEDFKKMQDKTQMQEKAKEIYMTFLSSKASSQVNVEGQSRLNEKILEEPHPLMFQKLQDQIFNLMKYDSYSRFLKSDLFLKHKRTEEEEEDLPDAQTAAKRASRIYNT
UniProt Q6NUK4: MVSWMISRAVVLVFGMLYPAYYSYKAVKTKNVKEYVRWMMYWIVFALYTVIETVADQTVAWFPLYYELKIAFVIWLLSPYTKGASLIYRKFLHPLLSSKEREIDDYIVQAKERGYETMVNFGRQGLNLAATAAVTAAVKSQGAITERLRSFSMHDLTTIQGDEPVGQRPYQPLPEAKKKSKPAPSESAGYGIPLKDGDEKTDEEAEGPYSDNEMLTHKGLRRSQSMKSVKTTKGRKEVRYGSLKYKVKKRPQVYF
UniProt O15258: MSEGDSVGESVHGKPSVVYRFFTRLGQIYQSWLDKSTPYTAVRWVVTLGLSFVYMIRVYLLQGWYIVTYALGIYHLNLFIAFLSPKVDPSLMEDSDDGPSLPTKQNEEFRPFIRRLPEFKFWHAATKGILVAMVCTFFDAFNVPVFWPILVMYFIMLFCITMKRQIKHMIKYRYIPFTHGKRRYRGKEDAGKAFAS
UniProt Q5XPI4: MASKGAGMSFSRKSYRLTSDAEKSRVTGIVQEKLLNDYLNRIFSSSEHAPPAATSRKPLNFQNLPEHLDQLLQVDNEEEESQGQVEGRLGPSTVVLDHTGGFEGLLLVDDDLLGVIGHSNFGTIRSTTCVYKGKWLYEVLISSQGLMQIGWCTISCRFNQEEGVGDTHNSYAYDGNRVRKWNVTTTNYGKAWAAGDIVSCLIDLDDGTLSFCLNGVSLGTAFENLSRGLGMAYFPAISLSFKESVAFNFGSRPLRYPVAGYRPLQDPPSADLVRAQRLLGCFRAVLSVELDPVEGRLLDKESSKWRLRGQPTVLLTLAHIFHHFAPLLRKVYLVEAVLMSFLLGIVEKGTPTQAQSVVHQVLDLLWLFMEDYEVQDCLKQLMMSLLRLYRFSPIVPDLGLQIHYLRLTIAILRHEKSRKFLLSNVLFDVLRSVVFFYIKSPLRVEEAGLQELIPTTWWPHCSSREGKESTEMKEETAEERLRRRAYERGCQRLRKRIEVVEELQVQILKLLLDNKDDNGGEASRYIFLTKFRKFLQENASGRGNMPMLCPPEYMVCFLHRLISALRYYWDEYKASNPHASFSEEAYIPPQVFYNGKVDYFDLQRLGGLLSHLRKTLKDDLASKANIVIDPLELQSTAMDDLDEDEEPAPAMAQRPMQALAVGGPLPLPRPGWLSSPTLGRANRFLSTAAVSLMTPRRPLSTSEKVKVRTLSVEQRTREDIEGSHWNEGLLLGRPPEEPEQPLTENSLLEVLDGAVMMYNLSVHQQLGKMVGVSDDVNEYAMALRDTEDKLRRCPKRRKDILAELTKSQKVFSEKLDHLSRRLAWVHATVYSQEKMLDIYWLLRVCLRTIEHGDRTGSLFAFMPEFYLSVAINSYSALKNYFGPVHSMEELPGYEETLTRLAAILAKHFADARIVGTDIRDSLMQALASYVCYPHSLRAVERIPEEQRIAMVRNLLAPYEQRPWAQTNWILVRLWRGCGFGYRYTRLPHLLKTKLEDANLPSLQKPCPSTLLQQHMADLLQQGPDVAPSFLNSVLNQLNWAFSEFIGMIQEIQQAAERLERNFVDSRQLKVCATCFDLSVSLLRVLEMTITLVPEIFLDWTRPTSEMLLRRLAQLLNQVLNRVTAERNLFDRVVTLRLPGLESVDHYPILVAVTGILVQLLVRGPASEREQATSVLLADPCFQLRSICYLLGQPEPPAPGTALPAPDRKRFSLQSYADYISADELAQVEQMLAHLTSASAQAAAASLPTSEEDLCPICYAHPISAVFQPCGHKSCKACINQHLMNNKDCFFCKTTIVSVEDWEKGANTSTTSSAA
UniProt P61586, whole entry, looked up: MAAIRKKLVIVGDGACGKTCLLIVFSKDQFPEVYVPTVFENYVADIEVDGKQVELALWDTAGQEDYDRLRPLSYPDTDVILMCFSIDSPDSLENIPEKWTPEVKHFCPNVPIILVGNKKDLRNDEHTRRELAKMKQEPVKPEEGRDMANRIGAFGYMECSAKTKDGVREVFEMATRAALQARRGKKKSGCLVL
UniProt Q14257: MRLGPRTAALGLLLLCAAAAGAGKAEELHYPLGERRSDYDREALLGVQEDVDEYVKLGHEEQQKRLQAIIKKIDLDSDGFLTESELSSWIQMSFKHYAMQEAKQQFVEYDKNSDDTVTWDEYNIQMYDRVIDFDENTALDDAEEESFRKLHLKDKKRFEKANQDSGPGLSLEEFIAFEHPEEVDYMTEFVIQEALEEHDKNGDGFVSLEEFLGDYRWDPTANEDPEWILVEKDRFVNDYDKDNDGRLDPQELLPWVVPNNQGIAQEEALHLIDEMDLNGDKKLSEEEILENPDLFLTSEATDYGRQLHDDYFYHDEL
UniProt A6NED2: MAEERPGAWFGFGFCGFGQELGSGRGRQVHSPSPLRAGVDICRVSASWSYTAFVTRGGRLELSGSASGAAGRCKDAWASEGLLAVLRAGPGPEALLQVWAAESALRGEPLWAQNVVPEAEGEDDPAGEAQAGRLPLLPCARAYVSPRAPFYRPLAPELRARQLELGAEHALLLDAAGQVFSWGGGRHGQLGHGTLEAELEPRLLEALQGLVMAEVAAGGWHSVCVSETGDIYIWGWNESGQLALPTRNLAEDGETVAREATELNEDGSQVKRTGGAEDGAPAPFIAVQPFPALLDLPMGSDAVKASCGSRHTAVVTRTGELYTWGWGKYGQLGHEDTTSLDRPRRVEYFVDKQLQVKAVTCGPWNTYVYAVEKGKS
UniProt O00584, whole entry, looked up: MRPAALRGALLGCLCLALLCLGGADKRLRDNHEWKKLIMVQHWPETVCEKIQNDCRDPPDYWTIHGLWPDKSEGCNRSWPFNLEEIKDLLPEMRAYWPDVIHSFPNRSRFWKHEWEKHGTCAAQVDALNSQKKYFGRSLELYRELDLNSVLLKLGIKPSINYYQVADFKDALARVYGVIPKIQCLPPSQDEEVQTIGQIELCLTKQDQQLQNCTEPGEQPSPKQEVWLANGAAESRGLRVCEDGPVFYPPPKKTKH
UniProt Q9H0Z9: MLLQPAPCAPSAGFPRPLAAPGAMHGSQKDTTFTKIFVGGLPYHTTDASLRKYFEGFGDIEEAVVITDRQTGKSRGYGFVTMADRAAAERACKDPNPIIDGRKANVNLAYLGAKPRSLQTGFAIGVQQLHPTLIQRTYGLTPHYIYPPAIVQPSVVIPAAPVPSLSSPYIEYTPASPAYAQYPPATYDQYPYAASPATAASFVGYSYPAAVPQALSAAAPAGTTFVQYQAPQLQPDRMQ
UniProt P51606: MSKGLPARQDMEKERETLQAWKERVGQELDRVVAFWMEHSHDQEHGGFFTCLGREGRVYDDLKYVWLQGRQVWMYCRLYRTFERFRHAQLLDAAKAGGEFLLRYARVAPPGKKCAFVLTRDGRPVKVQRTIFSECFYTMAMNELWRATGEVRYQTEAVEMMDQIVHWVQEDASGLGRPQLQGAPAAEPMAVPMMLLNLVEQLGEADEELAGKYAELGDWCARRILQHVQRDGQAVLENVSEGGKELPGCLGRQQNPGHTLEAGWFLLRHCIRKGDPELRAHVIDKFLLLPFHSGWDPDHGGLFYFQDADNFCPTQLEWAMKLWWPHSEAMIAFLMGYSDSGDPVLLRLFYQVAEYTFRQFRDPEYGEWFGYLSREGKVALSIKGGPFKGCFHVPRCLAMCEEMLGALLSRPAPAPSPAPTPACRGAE
UniProt Q9BQY4: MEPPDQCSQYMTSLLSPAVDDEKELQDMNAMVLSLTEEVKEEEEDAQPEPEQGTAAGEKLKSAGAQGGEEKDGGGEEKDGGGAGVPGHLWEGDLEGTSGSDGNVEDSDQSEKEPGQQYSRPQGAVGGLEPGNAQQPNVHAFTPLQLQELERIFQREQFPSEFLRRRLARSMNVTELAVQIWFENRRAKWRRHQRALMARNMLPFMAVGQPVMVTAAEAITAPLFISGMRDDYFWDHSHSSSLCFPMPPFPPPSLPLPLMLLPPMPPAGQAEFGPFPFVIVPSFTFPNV
UniProt Q5TBB1: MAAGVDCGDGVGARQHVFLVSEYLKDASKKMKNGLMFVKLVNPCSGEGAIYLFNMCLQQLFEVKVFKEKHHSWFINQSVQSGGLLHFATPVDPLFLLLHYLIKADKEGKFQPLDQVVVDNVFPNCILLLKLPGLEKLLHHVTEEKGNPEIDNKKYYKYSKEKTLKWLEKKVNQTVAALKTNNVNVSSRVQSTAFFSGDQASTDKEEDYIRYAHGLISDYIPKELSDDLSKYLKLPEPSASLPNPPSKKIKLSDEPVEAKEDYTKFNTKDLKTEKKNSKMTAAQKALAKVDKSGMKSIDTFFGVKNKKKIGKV

Assays:
Test in all cases: log2 fold change, soluble protein after heating vs DMSO (PISA); higher = thermal stabilisation; K562 cells, 10 uM, 30 min; active = over 0.2 and 3.5 SD of the protein, either way, in both replicates (recomputed)
[1] = compound: Cc1ccc(NC(=O)c2ccc(CN3CC[C@H](N(C)C)C3)c(C(F)(F)F)c2)cc1Nc1nccc(-c2cncnc2)n1 [bafetinib]
Procedure, shortened: (§1)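 Soluble protein was defined as the supernatant after 21,000xg for 90 min. It came from K562 cells at 2×10^6 cells/mL given 10 μM compound for 30 min, heated in aliquots for 3 min across 48°C-58°C, pooled, and extracted in PBS with 0.5% NP-40 at 4°C, and was quantified by TMTpro 16plex LC-MS/MS with equalised channel sums. Thermal stability against control samples, from duplicates, is reported as log2 fold change.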

[2] = compound: Cc1cccc(CC(=O)N2CCc3c2ccc(-c2cn(C)c4ncnc(N)c24)c3F)n1
Procedure, shortened: as §1

[3] = compound: Cc1cn(-c2cc(NC(=O)c3ccc(C)c(Nc4nccc(-c5cccnc5)n4)c3)cc(C(F)(F)F)c2)cn1 [nilotinib]
Procedure, shortened: as §1

[4] = compound: Cc1nc(Nc2n[nH]c3c2CN(C(=O)N[C@H](CN(C)C)c2ccccc2)C3(C)C)c2sccc2n1
Procedure, shortened: as §1

[5] = compound: Cc1nc(Nc2ncc(C(=O)Nc3c(C)cccc3Cl)s2)cc(N2CCN(CCO)CC2)n1 [dasatinib]
Procedure, shortened: as §1

[6] = compound: Cc1ncc(-c2ccnc(Nc3ccc(S(C)(=O)=O)cc3)n2)n1C(C)C
Procedure, shortened: as §1

[7] = compound: Cn1cc(-c2ccc3c(c2)CCN3C(=O)Cc2cccc(C(F)(F)F)c2)c2c(N)ncnc21
Procedure, shortened: as §1

[8] = compound: Cn1cc(-c2ccc3nnc(C(F)(F)c4ccc5ncccc5c4)n3n2)cn1
Procedure, shortened: as §1

[9] = compound: Cn1cncc1[C@@](N)(c1ccc(Cl)cc1)c1ccc2c(c1)c(-c1cccc(Cl)c1)cc(=O)n2C [tipifarnib]
Procedure, shortened: as §1

[10] = compound: FC(F)(F)c1ccc(/C=C/c2nc(COc3ccc(CCCCn4ccnn4)cc3)co2)cc1 [mubritinib]
Procedure, shortened: as §1

[11] = compound: NC(=O)Nc1cc(-c2cccc(F)c2)sc1C(=O)N[C@H]1CCCNC1
Procedure, shortened: as §1

[12] = compound: NC(=O)c1cnc(N[C@@H]2CCCC[C@@H]2N)nc1Nc1cccc(-n2nccn2)c1
Procedure, shortened: as §1

[13] = compound: NC1(c2ccc(-c3nc4ccn5c(=O)[nH]nc5c4cc3-c3ccccc3)cc2)CCC1
Procedure, shortened: as §1

[14] = compound: NCC(=O)Nc1ccc(-n2nc(C(F)(F)F)cc2-c2ccc3c(ccc4ccccc43)c2)cc1
Procedure, shortened: as §1

[15] = compound: Nc1ccccc1NC(=O)c1ccc(CNC(=O)OCc2cccnc2)cc1 [entinostat]
Procedure, shortened: as §1

[16] = compound: O=C(CCCCCCC(=O)Nc1ccccc1)NO [vorinostat]
Procedure, shortened: as §1

[17] = compound: O=C(CCCCCCNC(=O)c1cnc(N(c2ccccc2)c2ccccc2Cl)nc1)NO [citarinostat]
Procedure, shortened: as §1

[18] = compound: O=C(O)c1ccc2c(c1)nc(Nc1cccc(Cl)c1)c1ccncc12 [silmitasertib]
Procedure, shortened: as §1

[19] = compound: O=C1NC(=O)C(c2cnc3ccccn23)=C1c1cn2c3c(cc(F)cc13)CN(C(=O)N1CCCCC1)CC2
Procedure, shortened: as §1

[20] = compound: c1cc(OCCN2CCCCC2)cc(-c2n[nH]c3ccc(-c4nnc[nH]4)cc23)c1
Procedure, shortened: as §1

Measured: log2 fold change

RMND5A (UniProt Q9H871)
inactive: [1] 0.031 | [2] 0.019 | [3] -0.03 | [4] -0.027 | [5] -0.008 | [6] 0.008 | [7] -0.017 | [8] 0.003 | [9] 0.055 | [10] 0.012 | [11] -0.007 | [12] -0.064 | [13] -0.025 | [14] 0.005 | [15] -0.015 | [16] -0.106 | [17] 0.001 | [18] 0.063 | [19] 0.023 | [20] -0.045

RIOK2 (UniProt Q9BVS4)
active: [12] 0.351
inactive: [1] 0.27 | [2] 0.003 | [3] 0.094 | [4] 0.202 | [5] 0.013 | [6] 0.231 | [7] -0.041 | [8] -0.067 | [9] -0.003 | [10] 0.014 | [11] -0.008 | [13] 0.04 | [14] 0.027 | [15] -0.041 | [16] -0.044 | [17] -0.067 | [18] 0.018 | [19] 0.086 | [20] -0.071

RFK (UniProt Q969G6)
inactive: [1] -0.024 | [2] -0.033 | [3] -0.042 | [4] 0.064 | [5] 0.027 | [6] 0.036 | [7] 0.063 | [8] -0.037 | [9] -0.083 | [10] 0.033 | [11] -0.001 | [12] 0.091 | [13] -0.034 | [14] 0.021 | [15] -0.042 | [16] 0.016 | [17] 0.146 | [18] 0.013 | [19] -0.125 | [20] -0.044

RNASEH2A (UniProt O75792)
inactive: [1] -0.111 | [3] -0.025 | [4] 0.024 | [5] -0.159 | [6] -0.047 | [7] 0.056 | [8] 0.038 | [9] -0.003 | [10] 0.059 | [11] -0.017 | [12] -0.06 | [13] -0.181 | [14] -0.109 | [15] 0.037 | [16] -0.145 | [17] 0.015 | [18] 0.014 | [19] -0.208 | [20] -0.015
active: [2] -0.303

RGS10 (UniProt O43665)
inactive: [1] -0.08 | [2] 0.032 | [3] -0.057 | [4] 0.002 | [5] -0.034 | [6] 0.009 | [7] 0.126 | [8] -0.031 | [9] -0.043 | [10] -0.019 | [11] 0.077 | [12] 0.068 | [13] -0.037 | [14] 0.11 | [15] 0.038 | [16] 0.054 | [17] 0.087 | [18] 0.01 | [19] -0.057 | [20] 0.033

REEP3 (UniProt Q6NUK4)
inactive: [1] -0.044 | [2] 0.062 | [3] 0.01 | [4] -0.165 | [5] -0.107 | [6] -0.008 | [7] 0.01 | [8] 0 | [9] 0.023 | [10] 0.048 | [11] -0.144 | [12] -0.076 | [13] -0.037 | [14] -0.088 | [15] 0.033 | [16] 0.072 | [17] 0.048 | [18] -0.064 | [19] 0.105 | [20] -0.143

RER1 (UniProt O15258)
inactive: [1] -0.064 | [2] -0.155 | [3] 0.005 | [4] 0.003 | [5] 0.039 | [6] 0.006 | [7] 0.001 | [8] 0.045 | [9] 0.086 | [10] -0.033 | [11] -0.028 | [12] 0.085 | [13] 0.032 | [14] 0.03 | [15] -0.011 | [16] -0.072 | [17] 0.009 | [18] -0.023 | [19] -0.005 | [20] -0.017

RNF123 isoform 2 (UniProt Q5XPI4)
inactive: [1] -0.061 | [2] 0 | [3] 0.006 | [4] -0.112 | [5] -0.131 | [6] -0.047 | [7] 0.036 | [8] -0.036 | [9] -0.123 | [10] 0.111 | [11] -0.062 | [12] -0.051 | [13] -0.093 | [14] -0.03 | [15] -0.013 | [16] 0.023 | [17] 0.047 | [18] 0.085 | [19] -0.059 | [20] -0.042

RHOA (UniProt P61586)
inactive: [1] -0.149 | [2] -0.051 | [3] 0.154 | [4] 0.001 | [5] 0.001 | [6] 0.014 | [7] 0.04 | [8] 0.012 | [9] 0 | [10] 0.029 | [11] -0.01 | [12] 0.036 | [13] 0.204 | [14] 0.123 | [15] -0.019 | [16] -0.16 | [17] -0.047 | [18] -0.136 | [19] -0.057 | [20] 0.104

RCN2 isoform 2 (UniProt Q14257)
inactive: [1] 0.018 | [2] -0.028 | [3] 0.051 | [4] 0 | [5] 0.044 | [6] -0.021 | [7] -0.029 | [8] 0.012 | [9] 0.076 | [10] -0.063 | [11] 0.002 | [12] -0.004 | [13] 0.003 | [14] 0.009 | [15] -0.009 | [16] -0.029 | [17] 0.035 | [18] 0.005 | [19] 0.007 | [20] -0.083

RCCD1 (UniProt A6NED2)
inactive: [1] -0.08 | [2] 0.021 | [3] 0.033 | [4] -0.058 | [5] -0.014 | [6] 0.015 | [7] 0.076 | [8] 0.004 | [9] -0.004 | [10] 0.011 | [11] -0.096 | [12] 0.022 | [13] 0.004 | [14] 0.055 | [15] 0.022 | [16] 0.018 | [17] 0.059 | [18] -0.072 | [19] -0.029 | [20] -0.04

RNASET2 (UniProt O00584)
inactive: [2] -0.006 | [3] 0.016 | [4] -0.002 | [5] -0.031 | [6] -0.034 | [7] -0.065 | [8] 0.027 | [9] 0.067 | [10] 0.021 | [11] -0.082 | [12] -0.114 | [14] -0.033 | [15] -0.012 | [16] -0.04 | [17] 0.074 | [18] -0.018 | [19] -0.048 | [20] -0.102
active: [1] -0.261 | [13] -0.285

Two records picked at random from the list so far:
RCCD1 (UniProt A6NED2)
inactive: [1] -0.08 | [2] 0.021 | [3] 0.033 | [4] -0.058 | [5] -0.014 | [6] 0.015 | [7] 0.076 | [8] 0.004 | [9] -0.004 | [10] 0.011 | [11] -0.096 | [12] 0.022 | [13] 0.004 | [14] 0.055 | [15] 0.022 | [16] 0.018 | [17] 0.059 | [18] -0.072 | [19] -0.029 | [20] -0.04

RNASEH2A (UniProt O75792)
inactive: [1] -0.111 | [3] -0.025 | [4] 0.024 | [5] -0.159 | [6] -0.047 | [7] 0.056 | [8] 0.038 | [9] -0.003 | [10] 0.059 | [11] -0.017 | [12] -0.06 | [13] -0.181 | [14] -0.109 | [15] 0.037 | [16] -0.145 | [17] 0.015 | [18] 0.014 | [19] -0.208 | [20] -0.015
active: [2] -0.303

Later entries

RBM38 (UniProt Q9H0Z9)
inactive: [1] -0.047 | [2] 0.011 | [3] -0.028 | [4] -0.013 | [5] 0.004 | [6] -0.013 | [7] 0.17 | [8] 0.212 | [9] -0.071 | [10] 0.029 | [11] 0.02 | [12] -0.13 | [13] -0.021 | [14] -0.108 | [15] 0.066 | [16] -0.061 | [17] 0.06 | [18] -0.029 | [19] -0.072 | [20] -0.021

RENBP (UniProt P51606)
inactive: [1] 0.005 | [2] -0.013 | [3] -0.036 | [4] -0.057 | [5] 0.028 | [6] 0.036 | [7] 0.069 | [8] 0.01 | [9] 0.036 | [10] 0.031 | [11] -0.028 | [12] 0.014 | [13] -0.006 | [14] -0.058 | [15] -0.016 | [16] -0.058 | [17] 0.011 | [18] 0.027 | [19] -0.05 | [20] 0.029

RHOXF2 (UniProt Q9BQY4)
inactive: [1] -0.05 | [3] 0.009 | [4] -0.007 | [5] 0.053 | [6] -0.058 | [7] 0.008 | [8] -0.035 | [9] 0.048 | [10] 0.06 | [11] 0.004 | [12] 0.015 | [13] 0.039 | [14] 0.013 | [15] -0.002 | [16] -0.091 | [17] 0.006 | [18] 0.045 | [19] -0.023 | [20] -0.036
active: [2] -0.215

RNASEH2B (UniProt Q5TBB1)
inactive: [1] 0.042 | [2] -0.039 | [3] -0.045 | [4] 0.042 | [5] -0.317 | [6] -0.05 | [7] 0.177 | [8] 0.119 | [9] -0.116 | [10] 0.081 | [11] 0 | [12] -0.047 | [13] -0.254 | [14] -0.144 | [15] 0.087 | [16] 0.116 | [17] 0.184 | [18] -0.083 | [19] -0.267 | [20] 0.037
